For the data set, the system named is TRANSWELL in vitro BBB model, co-culture of RBE4 (rat brain endothelial) cells with C6 (rat astrocytoma) cells. In words: Trans-endothelial electrical resistance (TEER) of […] BBB model. The data set is classed as cell-based. The note with it: 48 hours, after treatment with 10 μM equivalent, n=4, mean ± SD.

As to `CCn1c(=O)/c(=C2\Sc3ccccc3N2C)s/c1=C\c1cccc[n+]1CC.[Cl-]` [MKT-077], the TEER after treatment is given as 294.56 ± 18.15 Ωcm^2.

The values above are taken from US11173152B1, “Glutathione-coated nanoparticles for delivery of MKT-077 across the blood-brain barrier” (UNIVERSITY OF SOUTH FLORIDA, priority 2015, dated 2021).
